From patent US20230167467A1, “METHODS AND COMPOSITIONS FOR THE PRODUCTION OF ISOBUTENE” (University of Alaska Anchorage, priority 2020, published 2023)
Where two headings read alike, the source gives them in different places. For some assays here: What was measured is the transcript of the gene that encodes the chain shown.

Key:
[1] = system: engineered strain of E. coli; format: cell-based
[2] = system: engineered strain of E. coli; test: M3K and MVD transcript abundance (share of RNA-seq reads aligned); conditions: for alignment rates: Day 30 glucose samples; for sequences aligned: glucose samples at day 1; for transcripts aligning: wastewater samples at day 1; for transcript abundance: wastewater samples, after one week
[3] = glucose samples aboard ISS, day 3 v day 7, […]
[4] = glucose samples aboard ISS, day 3 v day 14, […]
[5] = glucose samples aboard ISS, day 3 v day 30, […]
[6] = glucose samples aboard ISS, day 7 v day 14, […]
[7] = glucose samples aboard ISS, day 7 v day 30, […]
[8] = glucose samples aboard ISS, pairwise test day 3 against day 1, […]
[9] = glucose samples aboard ISS, pairwise test day 7 against day 1, […]
[10] = glucose samples aboard ISS, pairwise test day 14 against day 1, […]
[11] = glucose samples aboard ISS, pairwise test day 30 against day 1, […]

aceA
Glucose ISS time Series Tests, Day 3v7 (change in gene expression) [1, 3]: 0.46 ± 0.13
Glucose ISS time Series Tests, Day 3v14 (change in gene expression) [1, 4]: 0.23 ± 0.13
Glucose ISS time Series Tests, Day3v30 (change in gene expression) [1, 5]: −0.12 ± 0.13
Glucose ISS time Series Tests, Day 7v14 (change in gene expression) [1, 6]: −0.23 ± 0.13
Glucose ISS time Series Tests, Day 7v30 (change in gene expression) [1, 7]: −0.34 ± 0.13
Glucose ISS time Series Tests, Day 1v3 (change in gene expression) [1, 8]: −0.63 ± 0.15
Glucose ISS time Series Tests, Day 1v7 (change in gene expression) [1, 9]: −0.23 ± 0.13
Glucose ISS time Series Tests, Day 1v14 (change in gene expression) [1, 10]: −0.46 ± 0.13
Glucose ISS time Series Tests, Day 1 v30 (change in gene expression) [1, 11]: −0.57 ± 0.13

aceK
Glucose ISS time Series Tests, Day 1v3 (change in gene expression) [1]: 0.06 ± 0.23
Glucose ISS time Series Tests, Day 1v7 (change in gene expression) [1]: 0.16 ± 0.20
Glucose ISS time Series Tests, Day 1v14 (change in gene expression) [1]: 0.92 ± 0.20
Glucose ISS time Series Tests, Day 1 v30 (change in gene expression) [1]: 0.21 ± 0.20
Glucose ISS time Series Tests, Day 3v7 (change in gene expression) [1]: 0.16 ± 0.20
Glucose ISS time Series Tests, Day 3v14 (change in gene expression) [1]: 0.92 ± 0.20
Glucose ISS time Series Tests, Day3v30 (change in gene expression) [1]: 0.21 ± 0.20
Glucose ISS time Series Tests, Day 7v14 (change in gene expression) [1]: 0.76 ± 0.20
Glucose ISS time Series Tests, Day 7v30 (change in gene expression) [1]: 0.05 ± 0.20

flgA
Glucose ISS time Series Tests, Day 3v7 (change in gene expression) [1, 3]: −0.04 ± 0.20
Glucose ISS time Series Tests, Day 3v14 (change in gene expression) [1, 4]: 0.55 ± 0.18
Glucose ISS time Series Tests, Day3v30 (change in gene expression) [1, 5]: 0.28 ± 0.19
Glucose ISS time Series Tests, Day 7v14 (change in gene expression) [1, 6]: 0.59 ± 0.18
Glucose ISS time Series Tests, Day 7v30 (change in gene expression) [1, 7]: 0.32 ± 0.19
Glucose ISS time Series Tests, Day 1v3 (change in gene expression) [1, 8]: 0.54 ± 0.23
Glucose ISS time Series Tests, Day 1v7 (change in gene expression) [1, 9]: 0.52 ± 0.21
Glucose ISS time Series Tests, Day 1v14 (change in gene expression) [1, 10]: 1.11 ± 0.20
Glucose ISS time Series Tests, Day 1 v30 (change in gene expression) [1, 11]: 0.84 ± 0.20

fadH
Glucose ISS time Series Tests, Day 3v7 (change in gene expression) [1, 3]: 0.56 ± 0.14
Glucose ISS time Series Tests, Day 3v14 (change in gene expression) [1, 4]: −0.14 ± 0.14
Glucose ISS time Series Tests, Day3v30 (change in gene expression) [1, 5]: 0.63 ± 0.13
Glucose ISS time Series Tests, Day 7v14 (change in gene expression) [1, 6]: −0.70 ± 0.13
Glucose ISS time Series Tests, Day 7v30 (change in gene expression) [1, 7]: 0.07 ± 0.13
Glucose ISS time Series Tests, Day 1v3 (change in gene expression) [1, 8]: 0.05 ± 0.17
Glucose ISS time Series Tests, Day 1v7 (change in gene expression) [1, 9]: 0.63 ± 0.14
Glucose ISS time Series Tests, Day 1v14 (change in gene expression) [1, 10]: −0.08 ± 0.15
Glucose ISS time Series Tests, Day 1 v30 (change in gene expression) [1, 11]: 0.70 ± 0.14

B1: M3K: mevalonate-3-kinase of Picrophilus torridus, enzyme and gene/transcript (optimized gene SEQ ID NO:1) (protein)
chain: MENYNVKTRAFPTIGIILLGGISDKKNRIPLHTTAGIAYTGINNDVYTETKLYVSKDEKSYIDGKEIDLNSDRSPSKVIDKFKHEILMRVNLDDENNLSIDSRNFNILSGSSDSGAAALGECIESIFEYNINIFTFENDLQRISESVGRSLYGGLTVNYANGRESLTEPLLEPEAFNNFTIIGAHFNIDRKPSNEIHENIIKHENYRERIKSAERKAKKLEELSRNANIKGIFELAESDTVEYHKMLHDVGVDIINDRMENLIERVKEMKNNFWNSYIVTGGPNVFVITEKKDVDKAMEGLNDLCDDIRLLKVAGKPQVISKNF
modifications: optimized gene; M3K optimized gene
alignment rates [2]: 0.93%
sequences aligned [2]: 2.11%
transcripts aligning [2]: 2.2%
transcript abundance [2]: 0.88%

B2: MVD: mevalonate diphosphate decarboxylase of Saccharomyces cerevisiae, enzyme and gene/transcript (optimized gene SEQ ID NO:2) (protein)
chain: MTVYTASVTAPVNIATLKYWGKRDTKLNLPTNSSISVTLSQDDLRTLTSAATAPEFERDTLWLNGEPHSIDNERTQNCLRDLRQLRKEMESKDASLPTLSQWKLHIVSENNFPTAAGLASSAAGFAALVSAIAKLYQLPQSTSEISRIARKGSGSACRSLFGGYVAWEMGKAEDGHDSMAVQIADSSDWPQMKACVLVVSDIKKDVSSTQGMQLTVATSELFKERIEHVVPKRFEVMRKAIVEKDFATFAKETMMDSNSFHATCLDSFPPIFYMNDTSKRIISWCHTINQFYGETIVAYTFDAGPNAVLYYLAENESKLFAFIYKLFGSVPGWDKKFTTEQLEAFNHQFESSNFTARELDLELQKDVARVILTQVGSGPQETNESLIDAKTGLPKE
modifications: optimized gene; MVD optimized gene sequence
alignment rates [2]: 0.83%
sequences aligned [2]: 1.87%
transcripts aligning [2]: 1.98%
transcript abundance [2]: 0.81%
